{
  "sequences": {"note": "Protein sequences, listed by entry. Tags and fused reporters are not part of them.", "UniProt P25098": "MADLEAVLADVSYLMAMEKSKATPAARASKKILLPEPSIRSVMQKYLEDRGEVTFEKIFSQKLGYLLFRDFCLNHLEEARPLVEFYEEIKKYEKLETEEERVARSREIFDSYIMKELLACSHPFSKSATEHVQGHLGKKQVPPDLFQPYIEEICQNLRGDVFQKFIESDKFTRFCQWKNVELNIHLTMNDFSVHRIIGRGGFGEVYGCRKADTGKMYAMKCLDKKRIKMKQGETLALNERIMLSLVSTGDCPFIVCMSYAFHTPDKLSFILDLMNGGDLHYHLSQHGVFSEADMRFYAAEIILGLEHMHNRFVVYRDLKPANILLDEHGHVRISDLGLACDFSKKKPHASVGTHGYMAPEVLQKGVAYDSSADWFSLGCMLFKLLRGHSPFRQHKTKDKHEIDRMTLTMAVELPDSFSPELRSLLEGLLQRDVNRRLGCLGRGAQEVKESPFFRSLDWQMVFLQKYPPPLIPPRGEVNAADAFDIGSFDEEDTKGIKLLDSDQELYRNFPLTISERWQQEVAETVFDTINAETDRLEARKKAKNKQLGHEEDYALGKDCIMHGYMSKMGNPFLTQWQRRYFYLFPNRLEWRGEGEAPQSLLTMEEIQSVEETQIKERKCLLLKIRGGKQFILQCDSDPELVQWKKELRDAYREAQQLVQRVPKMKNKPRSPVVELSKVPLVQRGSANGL", "UniProt P05412": "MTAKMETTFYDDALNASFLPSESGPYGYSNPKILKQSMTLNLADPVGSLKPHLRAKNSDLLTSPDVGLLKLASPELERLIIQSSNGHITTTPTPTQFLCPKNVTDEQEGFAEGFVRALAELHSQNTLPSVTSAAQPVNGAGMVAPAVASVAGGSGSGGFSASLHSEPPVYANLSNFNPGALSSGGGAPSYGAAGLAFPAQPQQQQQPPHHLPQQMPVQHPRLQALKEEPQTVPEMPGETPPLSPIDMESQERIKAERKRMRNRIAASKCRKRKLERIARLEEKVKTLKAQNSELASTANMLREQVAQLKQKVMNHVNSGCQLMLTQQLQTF"},
  "source": "paper PMC12412516",
  "key": {"[1]": {"molecular_target": "Flag-tagged G protein-coupled receptor kinase 2 (GRK2) (UniProt P25098)", "test": "co-IP; HEK293 cells coexpressing Flag-tagged GRK2 and Myc-tagged AP-1; immunoprecipitation by Flag and, reciprocally, by Myc; n = 3"}, "[2]": {"molecular_target": "G protein-coupled receptor kinase 2 (GRK2), endogenous in HUVECs (human (endogenous in HUVECs)) (UniProt P25098)", "test": "co-IP; endogenous co-IP in HUVECs with anti-GRK2 antibodies; n = 3"}, "[3]": {"molecular_target": "Myc-tagged activator protein-1 (AP-1) (UniProt P05412)", "test": "co-IP; HEK293 cells coexpressing Flag-tagged GRK2 and Myc-tagged AP-1; immunoprecipitation by Flag and, reciprocally, by Myc; n = 3"}},
  "note": "These are yes or no findings as the source states them, for the method shown. In cells and extracts the contact can be indirect. Some results given as binding are weak or reduced against the parent protein; the word gives no strength.",
  "data": [
    {"substance": "Myc-tagged activator protein-1 (AP-1) (from UniProt P05412 1-331)", "values": [
      {"measurement": "binding", "setting": "[1]", "result": "binds"}
    ]},
    {"substance": "Activator protein-1 (AP-1), endogenous in HUVECs (from UniProt P05412 1-331)", "values": [
      {"measurement": "binding", "setting": "[2]", "result": "binds"}
    ]},
    {"substance": "Flag-tagged G protein-coupled receptor kinase 2 (GRK2) (from UniProt P25098 1-689) (enzyme)", "values": [
      {"measurement": "binding", "setting": "[3]", "result": "binds"}
    ]}
  ]
}
